This is one part of the list. Further columns of the screen follow, without active or inactive calls. The list favours compounds with an active or inconclusive main result. Potencies come from curve fits of mixed quality, noted in brackets.
Assay: qHTS Assay for Lipid Storage Modulators in Drosophila S3 Cells;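 on cell number change: cells counted by Cell Tracker Red CMTPX staining in the red channel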
Settings: BODIPY lipid droplet fluorescence, 18-24 h; for cell number change: measured here: cell count max response, cells fed with added oleic acid
How it was run: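 Laser-scanning cytometry quantifies lipid droplet accumulation (500–530 nm total intensity; droplet/cell object ratio) in oleic acid-fed (400 uM added) Drosophila S3 cells treated with a concentration series. 20 uM Triacsin C defined 100% inhibition.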

[1] = measured here: cell number channel AC50, cells fed with added oleic acid
[2] = measured here: lipid fluorescence (Fed channel) AC50, cells fed with added oleic acid

Row | Structure (SMILES) | cell number change [%] | AC50 [1] | AC50 [2]
1 | CCc1ccc(NC(=O)Nc2cccc(OC)c2)cc1 | 46.8 | 29.1 µM [rising, single point] | 29.1 µM [rising, single point]
2 | COCc1c(C(=O)OC)nnn1-c1ccc(C(F)(F)F)cc1[N+](=O)[O-] | -24.9 |  | 
3 | CC(C)OC(=O)CSc1nc2ncccc2[nH]1 | -10.6 |  | 
4 | CCCCCC(=O)Nc1ccc(S(=O)(=O)Nc2nccc(C)n2)cc1 | 9.3 |  | 0.92 µM [rising, full curve, poor fit]
5 | COc1ccccc1OCCCOc1c(C)cc(C)cc1Br | 4.72 |  | 29.1 µM [rising, single point]
6 | CCCCN(C(=O)CSCC(=O)Nc1ccc(C)cc1)c1c(N)n(CC(C)C)c(=O)[nH]c1=O | -18.2 |  | 
7 | NS(=O)(=O)c1cc2c(cc1Cl)NC(Cc1ccccc1)NS2(=O)=O (stereo unspecified) | 1.92 |  | 18.4 µM [falling, single point]
8 | COCCSc1ccccc1C(=O)Nc1ccc(S(=O)(=O)N2CCOCC2)cc1 | -1.65 |  | 4.11 µM [falling, single point]
9 | COc1ccc2c(c1)[nH]c1c(=O)n(/N=C/c3ccc(OC)c(CN4CCCCC4)c3)cnc12 | 32.2 | 1.84 µM [rising, full curve, poor fit] | 8.2 µM [rising, partial curve, poor fit]
10 | CC(C(=O)Nc1cc(C(F)(F)F)ccc1N1CCOCC1)N1C(=O)C2CCCCC2C1=O (stereo unspecified) | 4.23 |  | 0.0058 µM [falling, full curve, poor fit]
11 | Cn1c(SCC(=O)c2cccs2)nnc1-c1ccco1 | -0.0553 |  | 
12 | COc1cc(NC(=O)c2cc([N+](=O)[O-])ccc2Br)ccc1NC(=O)c1ccco1 | 13.3 | 6.51 µM [rising, single point] | 23.1 µM [rising, partial curve]
13 | O=C(CSc1nnc(-c2ccccc2Cl)o1)N1CCOCC1 | -24.8 |  | 
14 | CC(C)(C)c1ccccc1OCC(=O)Nc1ncn[nH]1 | 4.29 |  | 
15 | CC1=[N+]([O-])C(C)(C)CC(C)(C)c2ccccc21 |  |  | 5.8 µM [falling, partial curve]
16 | Cc1cccn2c(=O)c(/C=N/O)c(N3CCCCC3)nc12 | 115 | 0.651 µM [rising, single point] | 
17 | CCC(C)(C)NS(=O)(=O)c1cc(CN2C(=O)c3cccnc3C2=O)ccc1OC | -17 |  | 
18 | COc1cccc(N(C(=O)Cn2nnc(-c3ccc(C)cc3)n2)C(C(=O)NC(C)(C)C)c2c[nH]c3ccccc23)c1 (stereo unspecified) | -1.72 |  | 9.2 µM [falling, partial curve]

Part of the list above, showing only AC50 [2] and cell number change [%].
Row | Structure (SMILES) | AC50 [2] | cell number change [%]
2 | COCc1c(C(=O)OC)nnn1-c1ccc(C(F)(F)F)cc1[N+](=O)[O-] |  | -24.9
3 | CC(C)OC(=O)CSc1nc2ncccc2[nH]1 |  | -10.6
